This note sets out measurements from publication PMC12040169 (PLOS Biology, 2025).

The list shows a part of the results.

The assay concerns T1, CTL2-GFP (C. trachomatis L2/434/Bu, GFP-expressing).
T1 construct: L2/434/Bu, GFP-expressing
On the set-up: species or system HeLa; Intracellular C. trachomatis growth in HeLa cells, bulk GFP fluorescence relative to DMSO. Conditions: bulk GFP, single well; 28.5 h, 10 µM; inhibitor.
Take `CN(C)c1ccc(/C=N/NC2=NC(=O)CS2)cc1` [CBK019273]: the “% of control remaining” value is 116.006%. Then `Cc1nc(-c2ccc(NCC(O)c3ccco3)nc2)[nH]c(=O)c1C` (stereo not drawn) [CBK305254], with 91.9029%; and `Cc1cc(C(=O)N2CCC(n3c(=O)[nH]c4ccccc43)CC2)no1` [CBK149714], with 111.171%. With `O=C(O)c1ccc(OCCN2C3=NCCN3c3ccccc32)cc1` [CBK286629] the figure was 71.93%; with `O=S(=O)(Nc1nccnc1Cl)c1ccccc1Cl` [CBK149698], 107.508%; with `COc1ccc(OC)c(C(=O)N2CCNC(=O)C2Cc2ccc(-c3cccs3)cc2)c1` (stereo not drawn) [CBK285803], 67.9137%. Consider `Cc1ccccc1-n1ncc2c1ncn1nc(-c3ccccc3)nc21` [CBK287797], for which the “% of control remaining” value worked out at 91.581%. With `N#C/C(=C\c1ccc(-c2ccc3c(c2)C(=O)NC3=O)o1)c1nc2ccccc2[nH]1` [CBK262965] the figure was 123.522%; with `CC(C)(C)c1ccc(CN2CCN(C(=O)c3ccc(-c4ccc(S(C)(=O)=O)cc4)cn3)CC2)cc1` [CBK160487], 82.0209%. Turning to `O=C(NC1CC1)[C@H]1CN2CCC1C[C@@H]2Cn1cc(C2(O)CCCC2)nn1` (stereo partly drawn) [CBK289092], the “% of control remaining” value is given as 131.992%. With `Cc1cccc(CN2CCC(NC(=O)Cn3cc(Br)ccc3=O)CC2)c1` [CBK305669] the figure was 139.95%; with `CCOc1ncccc1C(=O)Nc1cnc2c(cnn2C(C)C)c1` [CBK306210], 116.008%.

For `CCNC(=O)C1(Cc2ccccc2-c2ccccc2)CCN(C(=O)c2csc(C)c2)CC1` [CBK285698], the “% of control remaining” value was 139.436%. Then `Cc1nn(C)c2ncc(S(=O)(=O)Nc3cc(C(N)=O)ccc3Cl)cc12` [CBK306104], with 151.642%; and `OC1CC(c2cc(NCCc3nc4ccccc4o3)ncn2)C1` (stereo not drawn) [CBK306573], with 75.2698%; and `C[C@@H](NC(=O)CCN1C(=O)[C@@H]2Cc3ccccc3CN2C1=O)C(=O)O` [CBK286709], with 110.781%. With `CC(=O)Nc1cccc(-c2nccnc2NS(=O)(=O)c2cccs2)c1` [CBK050760] the figure was 105.455%; with `CCOc1ccccc1C1C=C(C(=O)O)Nc2c(C(=O)Nc3ccccc3)cnn21` (stereo not drawn) [CBK287253], 147.18%.

On to `Cn1c(CCC(=O)Nc2ccc3c(c2)CN(Cc2ccccc2)C3)nc2ccccc21` [CBK285990], for which the “% of control remaining” value is recorded as 104.973%. Then `c1csc(-c2nccnc2NCCCN2CCOCC2)c1` [CBK036632], with 186.962%; and `CCC(=O)Nc1nc(-c2ccco2)c(-c2ccncc2)s1` [CBK284495], with 110.561%. With `COc1cc(/C=N/NC(=O)C(=O)Nc2ccc(C)c(C)c2)ccc1O` [CBK262225] the figure was 100%; with `COc1ccc(Sc2nccc(C(F)(F)F)n2)cc1OC` [CBK093772], 114.702%. Then `c1coc(-c2nccnc2NCCCN2CCOCC2)c1` [CBK038086], with 145.236%; and `CCOc1ccc(CC(=O)NC[C@H]2CC[C@H](c3cc(C(N)=O)c4ccccc4n3)CC2)cc1` [CBK285899], with 118.861%. For the compound `O=C(CN1CCC(NC(=O)c2cccs2)CC1)Nc1ccc(F)c(F)c1` [CBK305991], the “% of control remaining” value came to 137.772%.

In the case of `CN(C)CC(Oc1ccccc1)C(=O)c1ccccc1` (stereo not drawn) [CBK011935C], the “% of control remaining” value was 91.3116%.

In the case of `O=C(COc1ccccc1)NCC1(c2ccccc2)CCOCC1` [CBK067407], the “% of control remaining” value amounted to 88.3741%. With `CCOc1cccc(-c2cncc(NCCO)n2)c1` [CBK066075] the figure was 123.516%; with `CCCCC12CN3CCN(CC(C3)/C1=N\N=C1/C3CN4CCN(C3)CC1(CCCC)C4)C2` [CBK264981], 111.623%; with `CCc1ccccc1-c1cccc(C(=O)NCC(O)CN(C)C)c1` (stereo not drawn) [CBK306604], 110.026%.

Regarding `CSCCC(=O)N1CCC2(CCN(Cc3ccccc3)C2)C1` (stereo not drawn) [CBK136838], the “% of control remaining” value was found to be 88.272%.

For the compound `COc1ccc(-c2cc(C(=O)NCCc3ccc(N)cc3)cnc2-c2ccc(Cl)cc2)cc1` [CBK037561], the “% of control remaining” value is on record as 191.846%. Then `O=C(CN1CCCC1=O)NC(Cc1cccs1)c1nccs1` (stereo not drawn) [CBK282177], with 109.238%; and `CS(=O)(=O)N(CC(=O)NC1CCCCC1)c1cccc2ccccc12` [CBK263770], with 114.27%; and `COc1ccc2[nH]c(=O)c(CN(CCCN3CCOCC3)C(=O)Nc3cccc(Cl)c3)cc2c1` [CBK135402], with 103.426%. Then `COCCN1C(=O)C2(CC(=O)N(CC(=O)N(C)C)C2=O)c2cc(F)ccc21` (stereo not drawn) [CBK075428], with 158.865%. With `Cc1ncoc1C(=O)N1CCC2(C/C=C/C[C@H]3COCC[C@H]3NC(=O)CNC2=O)CC1` [CBK292086] the figure was 137.9%; with `COc1cc(CN2CCCC3(CCN(C(=O)Cc4c[nH]c5ccccc45)C3)C2)cc(OC)c1OC` (stereo not drawn) [CBK132027], 109.475%. For the compound `O=C1CNC(=O)C2(C/C=C/C[C@H]3COCC[C@H]3N1)CCN(Cc1cccc3[nH]ccc13)CC2` [CBK292073], the “% of control remaining” value stood at 134.928%. With `COc1ccccc1-c1[nH]nc(O)c1Cc1c(Cl)cccc1Cl` [CBK107933] the figure was 105.484%.

For the compound `CN1CCN(S(=O)(=O)c2ccc(C(C)(C)C)cc2)CC1` [CBK051237], the “% of control remaining” value worked out at 96.7114%. Consider `COc1cccc(N2CCN(CC(CC(=O)Nc3ccccc3)C(=O)O)CC2)c1` (stereo not drawn) [CBK286813], for which the “% of control remaining” value was 140.802%.

In the case of `N=c1n(CCN2CCCCC2)c2ccccc2n1CC(O)COc1ccccc1` (stereo not drawn) [CBK262451C], the “% of control remaining” value was 100%. With `CCCCOc1ccc(S(=O)(=O)Nc2ccc(-c3cn4ccccc4n3)cc2)cc1` [CBK264374] the figure was 132.099%; with `COc1ccccc1N1CCN(CC(CC(=O)Nc2ccc3c(c2)OCO3)C(=O)O)CC1` (stereo not drawn) [CBK286822], 123.248%; with `COc1cc(/C=C2/SC(=N)NC2=O)ccc1OCc1ccccc1[N+](=O)[O-]` [CBK262181], 118.979%. With `COc1ccccc1N1CCN(C(=O)c2ccc3c(c2)no[n+]3[O-])CC1` [CBK091510] the figure was 93.958%; with `Cn1cc(CC(=O)N2CCCc3ccccc32)c2ccccc21` [CBK200349], 98.3428%; with `Cc1nn(CC(=O)N2CCC(C)CC2)c(=O)c2cc3occc3n12` [CBK283654], 133.199%.

Turning to `CCN(Cc1ccncc1)C(=O)NCc1ccc(F)cc1` [CBK155146], the “% of control remaining” value was 95.9633%. Consider `COc1ccc(C(=O)N2CCC3(CCN(C(=O)CCSC)C3)C2)cc1OC` (stereo not drawn) [CBK131786], for which the “% of control remaining” value is reported as 114.625%. `CC(=O)Nc1cccc(-n2nnnc2SCc2cnn(C)c2)c1` [CBK305471]: the “% of control remaining” value amounted to 79.075%. In the case of `Cc1csc2c(C3CCCN(C(=O)c4cc[nH]n4)C3)nc(C)n12` (stereo not drawn) [CBK285238], the “% of control remaining” value is 135.473%.

For the compound `COCC(C)NC(=O)Cn1c(-c2cccs2)cc2cccnc21` (stereo not drawn) [CBK282557], the “% of control remaining” value was found to be 127.492%. Then `O=C1CSC(Nc2nc(-c3ccccc3)cs2)=N1` [CBK026880], with 129.761%; and `CCOc1ccc(-n2nnnc2SCC(=O)c2ccc(Cl)c(Cl)c2)cc1` [CBK141942], with 78.1521%; and `Cc1cc(C)c2c(C(C)(C)C)nn(-c3ccc(C(=O)O)cc3)c2n1` [CBK267481], with 126.214%. With `Cc1nc(C(Cc2ccsc2)NC(=O)c2ccnn2C)sc1C` (stereo not drawn) [CBK284778] the figure was 117.91%. With `COC(=O)c1cc(Br)ccc1NC(=O)COc1ccccc1C` [CBK263715] the figure was 113.377%; with `CCN(CC)CCN(C)Cc1ccccc1Br` [CBK026593], 116.337%; with `CC(C)[C@H](CO)Nc1nc(-c2ccccc2)cnc1N` [CBK063933], 72.9219%. With `C=CCn1c(Cc2csc(NC(=O)Cc3cc(OC)c(OC)c(OC)c3)n2)n[nH]c1=S` [CBK295311], the “% of control remaining” value was 136.047%. Then `O=C1NC[C@@H](CCC(=O)N2CCCC2)N2C[C@@H](NC(=S)Nc3ccccc3)C[C@@H]12` [CBK289004], with 107.033%. Then `Cc1ccccc1NC(=O)c1ccc(Br)o1` [CBK107152], with 102.772%; and `Cc1ccc(C)c2c1c1nc3ccccc3nc1n2Cc1nnc(-c2ccccc2)o1` [CBK268677], with 148.737%.

Consider `COc1nccnc1-c1ccc(Cl)c(Cl)c1` [CBK107110], for which the “% of control remaining” value is 129.567%. `C[C@H](Nc1nc(-c2cc(C(F)(F)F)cc(C(F)(F)F)c2)cnc1N)c1ccccc1` [CBK063768]: the “% of control remaining” value stood at 103.794%.

Regarding `CCn1c(=O)n(CC2(O)CCCOC2)c2cc(S(=O)(=O)N(C)C)ccc21` (stereo not drawn) [CBK304788], the “% of control remaining” value is 121.618%. With `OC(CSc1ccccc1)CN1CCN(Cc2ccc3c(c2)OCO3)CC1` (stereo not drawn) [CBK074761] the figure was 129.884%; with `COc1ccc(SCCCCN2CCC3(CC2)OCCc2c3[nH]c3ccccc23)cc1` [CBK113464T], 25.3288%. With `O=C(NC(=O)C1CCNCC1)Nc1ccccc1` [CBK034794] the figure was 121.365%. As to `CC(C)CC(=O)N1CCC(n2c(=O)oc3ccc(Cl)cc32)CC1` [CBK285477], the “% of control remaining” value is recorded as 88.9928%. Then `CN(C)CC(=O)N1CCc2nc(-c3cccc(F)c3)sc2C1` [CBK281801], with 116.99%; and `CCOc1ccc(Cl)cc1CN(C)C(=O)NCC(C)CN(C)C` (stereo not drawn) [CBK307500], with 97.4386%; and `CCn1ncc(Br)c1C(=O)Nc1ccc(Cl)cn1` [CBK265826], with 131.381%. With `Cc1cc([N+](=O)[O-])ccc1/N=C\c1ccc(C(=O)O)cc1` [CBK262058] the figure was 99.0342%. With `COC(=O)[C@H]1CN(C(=O)c2cccnc2)C[C@@H]1c1ccc(F)cc1` [CBK283788] the figure was 157.368%.
